# Measurements from the supplement of paper PMC12889115.
# The list shows a part of the results. These are raw signals, not scaled to a control.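 First-pass screen: polymyxin B was added at a level that permeabilizes the Salmonella outer membrane while sparing the inner membrane. DMSO wells, with and without polymyxin B, defined maximum growth. Because plates differed from one another, each plate's data were ranked separately and the compounds with the lowest OD600 were carried forward as hits.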
# System: Salmonella enterica serovar Typhimurium SL1344
# Assay: bacterial growth OD600 after 18 h with compound and polymyxin B; higher = more bacterial growth (less inhibition)
# Settings: 50 µM, Mueller-Hinton broth
Structure (SMILES),bacterial growth OD600 (polymyxin B 1 µg/mL),bacterial growth OD600 (polymyxin B 0.75 µg/mL)
O=C(CCc1nnc(C2(c3ccc(Cl)cc3)CCC2)o1)NCC1COCCO1 (configuration not stated),0.796,
O=C(CCc1cn[nH]c1)N1CCC(C2CCN(Cc3cccnc3)CC2)C1 (configuration not stated),,0.927
CCS(=O)(=O)Nc1cc(C(=O)NCCc2cnccn2)c2c(c1)nc(-c1ccccc1)n2C,,0.864
COCC(C)NC(=O)Cc1c2c(n(Cc3ccccc3F)c1C)CCCC2=O (configuration not stated),0.689,
Cc1ccccc1SC1CCN(C(=O)C2CCC(=O)N(C3CC3)C2)CC1 (configuration not stated),0.933,
CCC1CN(Cc2ccc(OC)c(OC)c2)Cc2cc(OC)ccc2O1 (configuration not stated),,0.72
Cc1cccn2c(CN3CCN(C(C)C)CC3)c(C(=O)N(C)CCc3ccccc3)nc12,1.39,
COCCN1C(=O)NC(Cc2ccc(F)cc2)(C2CCN(C(=O)c3sccc3Cl)CC2)C1=O (configuration not stated),,0.857
OC1CCN(c2nc3nonc3nc2N2CCCCCC2)CC1,,0.819
c1ccc(Cc2noc(-c3ccc(NC4CCSC4)nc3)n2)cc1 (configuration not stated),,0.001
COc1cc(-c2cc(C)c3c(OC)ccc(OC)c3n2)cc2c1OCCN(C(C)=O)C2,,0.888
CCCN(CC1CCCO1)C(=O)c1cc(COc2cccc3cccnc23)on1 (configuration not stated),0.934,
O=C(CCC(F)(F)F)NC1CC(=O)N(Cc2cccc3ccccc23)C1 (configuration not stated),0.833,
Cc1cccc(CNC(=O)C2CC23CCN(C(=O)C(C)Oc2cccc(Cl)c2)CC3)n1 (configuration not stated),,0.774
CSc1ccccc1OCc1cc(C(=O)NCc2ccc(C)s2)no1,0.88,
CCCCNC(=O)c1coc(COc2cccc3cnccc23)n1,0.848,

# Record cards (already shown):
# OC1CCN(c2nc3nonc3nc2N2CCCCCC2)CC1 is listed as bacterial growth OD600 (polymyxin B 0.75 µg/mL): 0.819
# COc1cc(-c2cc(C)c3c(OC)ccc(OC)c3n2)cc2c1OCCN(C(C)=O)C2 is listed as bacterial growth OD600 (polymyxin B 0.75 µg/mL): 0.888

# Next structures.

Structure (SMILES),bacterial growth OD600 (polymyxin B 1 µg/mL),bacterial growth OD600 (polymyxin B 0.75 µg/mL)
Cc1occc1C(=O)Nc1nc2c(s1)C(=O)CC(C(=O)NCC1(N3CCOCC3)CCCC1)C2 (configuration not stated),,0.798
COc1ccc(CN2CCOc3ccc(CN4CCOCC4)cc3C2)cc1,,0.88
CSCC(=O)N1CCc2[nH]nc(-c3ccccc3F)c2C1,,0.797
Cn1c(-c2ccncc2)nc2cc(C(=O)NCC(C)(C)N3CCOCC3)cc(NC(=O)C3CCC3)c21,,0.818
Cc1ccc(OCc2cc(C(=O)N3CCCC3c3nc4cc(F)ccc4[nH]3)no2)cn1 (configuration not stated),1.14,
Cc1n[nH]c(C)c1CN(C)C(=O)CC(c1cccc(O)c1)c1ccccc1Cl (configuration not stated),0.832,
CC(=O)c1ccc(C(=O)N2CCC(c3nc(-c4cccnc4)ncc3-c3ccccc3C)CC2)cc1,,0.597
CN1CCC(Nc2ccc(-c3nc(-c4ccccc4F)no3)cn2)CC1,0.973,
Cc1cc(CNC(=O)c2cnn(-c3nccc(-c4cc(C)sc4C)n3)c2C)on1,,0.969
COCCCNc1ncnc2sc(C(=O)NCCC(C)C)c(C)c12,,0.885
COc1cc(CNC(C)C)ccc1OCC(O)CN1CCSCC1 (configuration not stated),1.09,
Cc1ccccc1CC(=O)N1CCC(C2(Cc3cccc(F)c3)NC(=O)N(CCN(C)C)C2=O)CC1 (configuration not stated),,0.844
CC(=O)N[C@@H]1c2ccccc2C2(CCN(Cc3cccc4nccnc34)CC2)[C@H]1OCc1ccccc1,,0.869
Cc1cc(C)c(CN2CCC(N3CCC(C(=O)NCC4CCCO4)CC3)CC2)cc1C (configuration not stated),0.818,
CC(C)(C)C(=O)N1CCC(C2CCN(Cc3cccnc3)CC2)C1 (configuration not stated),,0.842
CC(C)c1nccn1Cc1cc(C(=O)NCCC2CCCCO2)n[nH]1 (configuration not stated),,0.832
